{"source": "patent US20090232909A1", "about": "“Method for determining physiological effects of hemoglobin” (priority 1999, published 2009)", "system": "oxygenated RBCs", "assay": "Intraerythrocytic S-nitrosoHb, iron nitrosylHb and metHb after exposure of oxygenated RBCs to NO", "format": "cell-based", "conditions": "0.3 μM NO, aerated RBCs, n=12"}
{"smiles": "[N]=O", "note": "[NO, nitric oxide]", "values": [{"measurement": "yield of intracellular S-nitrosoHb", "result": "103 ± 38", "unit": "nM"}, {"measurement": "yield of intracellular iron-nitrosylHb", "result": "42 ± 15", "unit": "nM"}, {"measurement": "yield of intracellular metHb", "result": 0, "unit": "nM"}]}
